In US5891657A (priority 1994, dated 1999):

Test system: anti-analyte antibody
Test: Effect of potentially interfering substances on the immunoassay
Design: species or system rabbit

[Cl-].[Na+] [Sodium chloride]
effect on the assay (up to 0.5M): no significant effect

[Ca+2] [calcium]
effect on the assay (up to 1000 ppm): no significant effect

[Cu] [copper]
effect on the assay (up to 1000 ppm): no significant effect

[Fe] [iron]
effect on the assay (up to 500 ppm): no effect

[Mg+2] [magnesium]
effect on the assay (up to 2500 ppm): no significant effect

[Mn+2] [manganese]
effect on the assay (up to 500 ppm): no effect

[Ni] [nickel]
effect on the assay (up to 2500 ppm): no significant effect

O=[N+]([O-])O [nitrate]
effect on the assay (up to 2500 ppm): no significant effect

O=S(=O)(O)O [sulfate]
effect on the assay (up to 1000 ppm): no significant effect

O=S(O)O [sulfite]
effect on the assay (up to 500 ppm): no effect

O=S(O)(O)=S [thiosulfate]
effect on the assay (up to 1000 ppm): no significant effect

[Zn] [zinc]
effect on the assay (up to 1000 ppm): no significant effect

phosphates
effect on the assay (up to 2500 ppm): no significant effect
